Assay [1] concerns the target T1, Flag–HD-PTP(1–712) (human) (UniProt Q9H3S7).
T1 sequence: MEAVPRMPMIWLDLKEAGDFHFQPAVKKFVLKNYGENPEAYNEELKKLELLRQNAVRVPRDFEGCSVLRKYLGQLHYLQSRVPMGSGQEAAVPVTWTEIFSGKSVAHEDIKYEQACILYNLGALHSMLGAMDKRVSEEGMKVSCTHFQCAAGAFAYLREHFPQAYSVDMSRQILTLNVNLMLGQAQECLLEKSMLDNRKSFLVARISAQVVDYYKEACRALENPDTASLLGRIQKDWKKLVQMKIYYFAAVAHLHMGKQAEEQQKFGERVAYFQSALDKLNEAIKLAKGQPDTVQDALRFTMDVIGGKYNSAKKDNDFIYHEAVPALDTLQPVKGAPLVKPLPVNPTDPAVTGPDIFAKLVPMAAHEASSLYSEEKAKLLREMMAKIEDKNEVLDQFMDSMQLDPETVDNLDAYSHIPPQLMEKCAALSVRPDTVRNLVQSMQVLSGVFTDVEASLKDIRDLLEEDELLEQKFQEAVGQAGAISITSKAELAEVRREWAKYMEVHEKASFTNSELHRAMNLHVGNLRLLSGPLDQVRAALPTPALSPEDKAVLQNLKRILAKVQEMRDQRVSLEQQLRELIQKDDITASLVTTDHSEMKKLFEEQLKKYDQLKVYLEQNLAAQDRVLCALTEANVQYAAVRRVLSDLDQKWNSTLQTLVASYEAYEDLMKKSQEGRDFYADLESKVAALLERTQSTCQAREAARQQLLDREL
Put plainly: co-IP; HEK293 cells transiently transfected with Flag-tagged HD-PTP(1–712) variants and HA-tagged STAM2 or CHMP4B; lysis in 50 mM Tris-HCl (pH 7.5), 150 mM NaCl, 1% Nonidet P40, 0.5% sodium deoxycholate, 1 mM EDTA; anti-HA agarose or anti-Flag M2 agarose; immunoblotting. Background: In western blotting, separated proteins are transferred to a membrane and probed.

Assay [2] concerns the target T2, HD-PTP(1–712;T145K) (human) (UniProt Q9H3S7).
T2 sequence: T1 sequence with T145K
The description is as above.

Where a chain is given by its changes, count along the chain named. Results are given in words; binding and its absence hold for the method and conditions named. In cells and extracts the contact can be indirect. Some binding calls cover weakened binding; strength is not graded here. Where a sequence is shown, tags or fusion partners need not be part of it.

B1: HA–CHMP4B (protein, UniProt Q9H444 1-224)
chain: MSVFGKLFGAGGGKAGKGGPTPQEAIQRLRDTEEMLSKKQEFLEKKIEQELTAAKKHGTKNKRAALQALKRKKRYEKQLAQIDGTLSTIEFQREALENANTNTEVLKNMGYAAKAMKAAHDNMDIDKVDELMQDIADQQELAEEISTAISKPVGFGEEFDEDELMAELEELEQEELDKNLLEISGPETVPLPNVPSIALPSKPAKKKEEEDDDMKELENWAGSM
In the case of B1, the binding entry in assay [1] and in assay [2] was “binds” throughout.

Values taken from publication PMC4751086.
